Results deposited as PubChem BioAssay AID504793 (Drosophila RNAi Screening Center, 2011)
The deposit covers about 23,000 reagents; this is a random part of those with a known target gene and a result. Over the whole deposit, 62 (0.27%) were called active. 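Calls come from follow-up tests whose scores are not deposited, so confirmed genes may have low counts here; counts are not normalised per plate.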 Raw values vary from plate to plate and are shown uncorrected. Unmarked entries are inactive. Reagents against one gene are numbered here. Reagent sequences are not shown.

Aim: 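Knock-downs allowing continued mitosis even though DNA is damaged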 (primary screen)
System: Drosophila S2R+ cells
Knock-down reagent: long dsRNA against Drosophila genes, about 0.25 µg dsRNA per well
Duration: 4 days of dsRNA, then 4 hours of drug before read-out
Treatment: doxorubicin 0.5 µM for 4 hours to cause double-strand breaks, in cells also given a low, harmless dose of dsRNA against nbs to sensitise the assay
Measured: 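Mitotic index as the number of phospho-histone H3-positive cells in each well following doxorubicin, given as raw counts without normalisation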
Reading the numbers: mitotic cells: higher = more cells in mitosis, weaker G2 arrest
Hit rule: 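Genes are called active only when high mitotic counts were reproduced with independent dsRNAs and mitosis was checked for delay without damage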
Meaning of the calls: active = confirmed in follow-up tests; inactive = not confirmed

CG8531: mitotic cells, replicate 1 = 4
CG31103: mitotic cells, replicate 1 = 8
Mrp4 (Multidrug resistance protein 4) #1: mitotic cells, replicate 1 = 3
Mrp4 (Multidrug resistance protein 4) #2: mitotic cells, replicate 1 = 6
CG13227 #1: mitotic cells, replicate 1 = 11
CG13227 #2: mitotic cells, replicate 1 = 2
ocn (ocnus): mitotic cells, replicate 1 = 8
kat-60L1 (katanin p60-like 1) #1: mitotic cells, replicate 1 = 3
kat-60L1 (katanin p60-like 1) #2: mitotic cells, replicate 1 = 5
CG8119 #1: mitotic cells, replicate 1 = 10
CG8119 #2: mitotic cells, replicate 1 = 4
oaf (out at first): mitotic cells, replicate 1 = 2
CG1631: mitotic cells, replicate 1 = 4
ND-MWFE (NADH dehydrogenase (ubiquinone) MWFE subunit): mitotic cells, replicate 1 = 2
tey (teyrha-meyrha) #1: mitotic cells, replicate 1 = 12
tey (teyrha-meyrha) #2: mitotic cells, replicate 1 = 5
tey (teyrha-meyrha) #3: mitotic cells, replicate 1 = 6
Vps4 (Vacuolar protein sorting 4) #1: mitotic cells, replicate 1 = 13
Vps4 (Vacuolar protein sorting 4) #2: mitotic cells, replicate 1 = 7
Ak1 (Adenylate kinase 1) #1: mitotic cells, replicate 1 = 7
Ak1 (Adenylate kinase 1) #2: mitotic cells, replicate 1 = 7
CG13539 #1: mitotic cells, replicate 1 = 10
CG13539 #2: mitotic cells, replicate 1 = 2
List (Lithium-inducible SLC6 transporter): mitotic cells, replicate 1 = 5
alphaTub84D (alpha-Tubulin at 84D) #1: mitotic cells, replicate 1 = 95
alphaTub84D (alpha-Tubulin at 84D) #2: mitotic cells, replicate 1 = 9
CG12998: mitotic cells, replicate 1 = 8
Arp1 (Actin-related protein 1) #1: mitotic cells, replicate 1 = 23
Arp1 (Actin-related protein 1) #2: mitotic cells, replicate 1 = 10
CG13226: mitotic cells, replicate 1 = 10
Rcd2 (Reduction in Cnn dots 2): mitotic cells, replicate 1 = 10
NANS (N-acetylneuraminic acid synthase) #1: mitotic cells, replicate 1 = 8
NANS (N-acetylneuraminic acid synthase) #2: mitotic cells, replicate 1 = 6
Trmt112 (tRNA methyltransferase subunit 11-2): mitotic cells, replicate 1 = 3
hfp (half pint) #1: mitotic cells, replicate 1 = 6
hfp (half pint) #2: mitotic cells, replicate 1 = 3
hfp (half pint) #3: mitotic cells, replicate 1 = 7
hfp (half pint) #4: mitotic cells, replicate 1 = 7
Cpr65Av (Cuticular protein 65Av) #1: mitotic cells, replicate 1 = 5
Cpr65Av (Cuticular protein 65Av) #2: mitotic cells, replicate 1 = 3
Toll-6: mitotic cells, replicate 1 = 2
park (parkin): mitotic cells, replicate 1 = 4
Pgcl (Pepsinogen C-like): mitotic cells, replicate 1 = 15
